Measurements published in the supplement of paper PMC8728848.
The other results are listed elsewhere or left out.

Key:
Experiment in all cases: glycan array binding signal (z-score within array); higher = stronger binding
Settings in all cases: glycan notation: IUPAC condensed, linker removed
[1] = biological target: Neu5Ac(a2-6)GlcNAc(b1-4)GlcNAc(b1-4)GlcNAc
In short: (§1)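 Glycan array binding is given as a within-array Z-score, which can be read as non-binding when negative. The arrays, 3228 of them, came from the Consortium for Functional Glycomics database and were retained only where the protein sequence was available. Z-scores were averaged across arrays of the same protein sequence at different concentrations or buffers and across linkers.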

Neu5Ac(a2-8)Neu5Ac = biological target: Neu5Ac(a2-8)Neu5Ac
In short: as §1

[2] = biological target: Neu5Ac(a2-8)Neu5Ac(a2-3)Gal(b1-3)GalNAc(b1-4)[Neu5Ac(a2-3)]Gal(b1-4)Glc
In short: as §1

[3] = biological target: Neu5Ac(a2-8)Neu5Ac(a2-3)Gal(b1-3)GalNAc(b1-4)[Neu5Ac(a2-8)Neu5Ac(a2-3)]Gal(b1-4)Glc
In short: as §1

[4] = biological target: Neu5Ac(a2-8)Neu5Ac(a2-3)Gal(b1-4)Glc
In short: as §1

[5] = biological target: Neu5Ac(a2-8)Neu5Ac(a2-3)Gal(b1-4)GlcNAc
In short: as §1

[6] = biological target: Neu5Ac(a2-8)Neu5Ac(a2-3)[Gal(b1-3)GalNAc(b1-4)]Gal(b1-4)Glc
In short: as §1

[7] = biological target: Neu5Ac(a2-8)Neu5Ac(a2-3)[GalNAc(b1-4)]Gal(b1-4)Glc
In short: as §1

[8] = biological target: Neu5Ac(a2-8)Neu5Ac(a2-8)Neu5Ac
In short: as §1

[9] = biological target: Neu5Ac(a2-8)Neu5Ac(a2-8)Neu5Ac(a2-3)Gal(b1-4)Glc
In short: as §1

[10] = biological target: Neu5Ac(a2-8)Neu5Ac(a2-8)Neu5Ac(a2-3)[Gal(b1-3)GalNAc(b1-4)]Gal(b1-4)Glc
In short: as §1

[11] = biological target: Neu5Ac(a2-8)Neu5Ac(a2-8)Neu5Ac(a2-3)[GalNAc(b1-4)]Gal(b1-4)Glc
In short: as §1

[12] = biological target: Neu5Ac(a2-8)Neu5Ac(a2-8)Neu5Ac(a2-8)Neu5Ac(a2-3)[GalNAc(b1-4)]Gal(b1-4)Glc
In short: as §1

[13] = biological target: Neu5Ac(a2-8)Neu5Gc(a2-3)Gal(b1-4)GlcNAc
In short: as §1

[14] = biological target: Neu5Ac(b2-6)Gal(b1-4)GlcNAc
In short: as §1

Neu5Ac(b2-6)GalNAc = biological target: Neu5Ac(b2-6)GalNAc
In short: as §1

[15] = biological target: Neu5Ac9Ac(a2-3)Gal(b1-3)GlcNAc
In short: as §1

[16] = biological target: Neu5Ac9Ac(a2-3)Gal(b1-4)GlcNAc
In short: as §1

[17] = biological target: Neu5Ac9Ac(a2-6)Gal(b1-4)GlcNAc
In short: as §1

[18] = biological target: Neu5Gc(a2-3)Gal(b1-3)GlcNAc
In short: as §1

[19] = biological target: Neu5Gc(a2-3)Gal(b1-3)[Fuc(a1-4)]GlcNAc
In short: as §1

Neu5Gc(a2-3)Gal(b1-4)Glc = biological target: Neu5Gc(a2-3)Gal(b1-4)Glc
In short: as §1

[20] = biological target: Neu5Gc(a2-3)Gal(b1-4)GlcNAc
In short: as §1

[21] = biological target: Neu5Gc(a2-3)Gal(b1-4)GlcNAc(b1-3)Gal(b1-4)GlcNAc(b1-2)Man(a1-3)[Neu5Gc(a2-3)Gal(b1-4)GlcNAc(b1-3)Gal(b1-4)GlcNAc(b1-2)Man(a1-6)]Man(b1-4)GlcNAc(b1-4)GlcNAc
In short: as §1

[22] = biological target: Neu5Gc(a2-3)Gal(b1-4)[Fuc(a1-3)]GlcNAc
In short: as §1

[23] = biological target: Neu5Gc(a2-6)Gal(b1-4)GlcNAc
In short: as §1

Neu5Gc(a2-6)GalNAc = biological target: Neu5Gc(a2-6)GalNAc
In short: as §1

[24] = biological target: Neu5Gc(a2-8)Neu5Ac(a2-3)Gal(b1-4)GlcNAc
In short: as §1

[25] = biological target: Neu5Gc(a2-8)Neu5Gc(a2-3)Gal(b1-4)GlcNAc
In short: as §1

[26] = biological target: Neu5Gc(a2-8)Neu5Gc(a2-3)Gal(b1-4)GlcNAc(b1-3)Gal(b1-4)GlcNAc
In short: as §1

[27] = biological target: Neu5Gc(a2-8)Neu5Gc(a2-6)Gal(b1-4)GlcNAc
In short: as §1

[28] = biological target: Neu5Gc(b2-6)Gal(b1-4)GlcNAc
In short: as §1

B1: SynCAM (Mus musculus) (protein)
chain: MASAVLPSGSQCAAAAAVAAAAAPPGLRLRLLLLLLSAAALIPTGDGQNLFTKDVTVIEGEVATISCQVNKSDDSVIQLLNPNRQTIYFRDFRPLKDSRFQLLNFSSSELKVSLTNVSISDEGRYFCQLYTDPPQESYTTITVLVPPRNLMIDIQKDTAVEGEEIEVNCTAMASKPATTIRWFKGNKELKGKSEVEEWSDMYTVTSQLMLKVHKEDDGVPVICQVEHPAVTGNLQTQRYLEVQYKPQVHIQMTYPLQGLTREGDAFELTCEAIGKPQPVMVTWVRVDDEMPQHAVLSGPNLFINNLNKTDNGTYRCEASNIVGKAHSDYMLYVYDPPTTIPPP
glycan array binding signal (z-score) [1]: -0.4 | glycan array binding signal (z-score) (Neu5Ac(a2-8)Neu5Ac): 0.392 | glycan array binding signal (z-score) [2]: 1.02 | glycan array binding signal (z-score) [3]: -0.014 | glycan array binding signal (z-score) [4]: 2.34 | glycan array binding signal (z-score) [5]: -0.664 | glycan array binding signal (z-score) [6]: 0.872 | glycan array binding signal (z-score) [7]: -0.675 | glycan array binding signal (z-score) [8]: -0.097 | glycan array binding signal (z-score) [9]: 0.525 | glycan array binding signal (z-score) [10]: -0.817 | glycan array binding signal (z-score) [11]: -0.674 | glycan array binding signal (z-score) [12]: 0.484 | glycan array binding signal (z-score) [13]: -1.08 | glycan array binding signal (z-score) [14]: -0.685 | glycan array binding signal (z-score) (Neu5Ac(b2-6)GalNAc): -0.413 | glycan array binding signal (z-score) [15]: -0.831 | glycan array binding signal (z-score) [16]: -1.57 | glycan array binding signal (z-score) [17]: -0.982 | glycan array binding signal (z-score) [18]: -0.846 | glycan array binding signal (z-score) [19]: -0.642 | glycan array binding signal (z-score) (Neu5Gc(a2-3)Gal(b1-4)Glc): -0.801 | glycan array binding signal (z-score) [20]: -0.921 | glycan array binding signal (z-score) [21]: 1.09 | glycan array binding signal (z-score) [22]: 0.261 | glycan array binding signal (z-score) [23]: -0.768 | glycan array binding signal (z-score) (Neu5Gc(a2-6)GalNAc): -0.004 | glycan array binding signal (z-score) [24]: -0.164 | glycan array binding signal (z-score) [25]: -0.058 | glycan array binding signal (z-score) [26]: -0.807 | glycan array binding signal (z-score) [27]: -0.527 | glycan array binding signal (z-score) [28]: 0.145
